One sequence from patent publication US20110020802, “NUCLEIC ACIDS, METHODS AND KITS FOR THE DIAGNOSIS OF DYT6 PRIMARY TORSION DYSTONIA” (Mount Sinai School of Medicine of New York University, published 2011) can be followed below.

Weaker means in comparison with the reference protein, sequence or condition of that experiment. Where a protein sequence is shown, tags need not be part of it.

The data set has as its target T1, THAP1 F81L (Homo sapiens) (UniProt Q9NVV9).
T1 sequence (limits assumed): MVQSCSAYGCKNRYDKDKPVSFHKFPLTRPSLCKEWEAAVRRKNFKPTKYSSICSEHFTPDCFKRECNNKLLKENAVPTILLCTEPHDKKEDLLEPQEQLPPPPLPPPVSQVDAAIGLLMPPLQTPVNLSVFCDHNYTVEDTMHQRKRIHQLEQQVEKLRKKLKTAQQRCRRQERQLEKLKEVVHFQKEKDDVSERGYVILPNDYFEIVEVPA
The data set is described as follows: EMSA. To be noted: bands dramatically reduced in intensity versus wild type at equal protein level; 150 mM KCl, 20 mM Tris pH 7.5, poly(dI-dC), room temperature; protein translated in vitro; protein details: N-terminal V5 (pcDNA3.1/nV5); label: 5'-32P. In general terms: Mobility shift assays separate free from complexed probe on a gel.

“AGCAAGTAAGGGCAACTACTTCAT (double strand) [THABS probe]”: the binding result is “binds more weakly”.
